Experimental findings from article PMC6470170 are described below.

Amino acid sequences for entries named in this document (tags omitted). Residues count along the entry.
UniProt P97952, residues 19-218: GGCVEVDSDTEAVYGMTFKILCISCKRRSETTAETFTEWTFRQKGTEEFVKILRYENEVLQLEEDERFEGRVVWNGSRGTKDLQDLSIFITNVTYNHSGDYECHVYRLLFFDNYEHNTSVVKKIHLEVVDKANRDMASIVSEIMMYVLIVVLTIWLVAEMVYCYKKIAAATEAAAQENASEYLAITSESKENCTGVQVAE

Test in all cases: co-IP; solubilized Scn1b WT mouse total brain membranes (~1 mg membrane proteins per tube); antibody-conjugated protein A-sepharose beads, 4-6 h at 4 °C in dilution buffer (60 mM Tris-HCl pH 7.5, 180 mM NaCl, 1% Triton X-100, 6 mM EDTA) with octyl-β-D-glucopyranoside; immunoblot; done in both directions; non-immune rabbit IgG control
On the technique in general: Immunoblotting shows a protein as a band on a membrane.

Experiment [1] concerns the target T1, K+-Cl- co-transporter-2 (KCC2) (mouse (endogenous in mouse brain)) (UniProt Q91V14).
T1 sequence: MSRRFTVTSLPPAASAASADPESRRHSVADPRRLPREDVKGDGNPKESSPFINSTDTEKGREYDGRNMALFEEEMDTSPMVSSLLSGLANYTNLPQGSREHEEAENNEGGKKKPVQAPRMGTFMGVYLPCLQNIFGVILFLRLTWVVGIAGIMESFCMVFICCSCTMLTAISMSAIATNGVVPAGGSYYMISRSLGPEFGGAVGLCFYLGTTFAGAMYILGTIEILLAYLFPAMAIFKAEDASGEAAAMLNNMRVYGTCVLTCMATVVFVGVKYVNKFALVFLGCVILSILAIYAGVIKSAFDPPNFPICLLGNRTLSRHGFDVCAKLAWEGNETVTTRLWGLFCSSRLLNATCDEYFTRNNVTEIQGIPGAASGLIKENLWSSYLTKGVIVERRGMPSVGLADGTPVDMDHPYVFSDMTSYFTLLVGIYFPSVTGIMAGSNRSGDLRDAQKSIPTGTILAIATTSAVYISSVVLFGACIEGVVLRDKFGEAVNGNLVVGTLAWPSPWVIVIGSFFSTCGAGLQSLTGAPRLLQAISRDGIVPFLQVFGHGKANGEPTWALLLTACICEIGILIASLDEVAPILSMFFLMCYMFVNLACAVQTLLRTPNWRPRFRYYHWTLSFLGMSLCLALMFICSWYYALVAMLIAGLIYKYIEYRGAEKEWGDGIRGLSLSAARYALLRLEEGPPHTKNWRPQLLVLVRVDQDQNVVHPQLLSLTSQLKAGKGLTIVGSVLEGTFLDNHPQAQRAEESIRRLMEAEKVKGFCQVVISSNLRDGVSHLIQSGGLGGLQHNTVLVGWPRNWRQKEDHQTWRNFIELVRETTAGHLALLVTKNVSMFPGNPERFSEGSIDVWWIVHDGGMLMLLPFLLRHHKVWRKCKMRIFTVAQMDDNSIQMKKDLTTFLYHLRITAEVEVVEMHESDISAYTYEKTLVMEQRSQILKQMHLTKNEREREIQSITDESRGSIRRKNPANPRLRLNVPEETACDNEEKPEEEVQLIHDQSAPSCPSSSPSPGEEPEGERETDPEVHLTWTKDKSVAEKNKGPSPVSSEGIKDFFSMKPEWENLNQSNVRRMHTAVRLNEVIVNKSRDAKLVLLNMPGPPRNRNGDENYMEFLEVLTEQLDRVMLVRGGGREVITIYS

In experiment [2] the target is T2, Na+, K+-2Cl- co-transporter-1 (NKCC1) (mouse (endogenous in mouse brain)) (UniProt P55012).
T2 sequence: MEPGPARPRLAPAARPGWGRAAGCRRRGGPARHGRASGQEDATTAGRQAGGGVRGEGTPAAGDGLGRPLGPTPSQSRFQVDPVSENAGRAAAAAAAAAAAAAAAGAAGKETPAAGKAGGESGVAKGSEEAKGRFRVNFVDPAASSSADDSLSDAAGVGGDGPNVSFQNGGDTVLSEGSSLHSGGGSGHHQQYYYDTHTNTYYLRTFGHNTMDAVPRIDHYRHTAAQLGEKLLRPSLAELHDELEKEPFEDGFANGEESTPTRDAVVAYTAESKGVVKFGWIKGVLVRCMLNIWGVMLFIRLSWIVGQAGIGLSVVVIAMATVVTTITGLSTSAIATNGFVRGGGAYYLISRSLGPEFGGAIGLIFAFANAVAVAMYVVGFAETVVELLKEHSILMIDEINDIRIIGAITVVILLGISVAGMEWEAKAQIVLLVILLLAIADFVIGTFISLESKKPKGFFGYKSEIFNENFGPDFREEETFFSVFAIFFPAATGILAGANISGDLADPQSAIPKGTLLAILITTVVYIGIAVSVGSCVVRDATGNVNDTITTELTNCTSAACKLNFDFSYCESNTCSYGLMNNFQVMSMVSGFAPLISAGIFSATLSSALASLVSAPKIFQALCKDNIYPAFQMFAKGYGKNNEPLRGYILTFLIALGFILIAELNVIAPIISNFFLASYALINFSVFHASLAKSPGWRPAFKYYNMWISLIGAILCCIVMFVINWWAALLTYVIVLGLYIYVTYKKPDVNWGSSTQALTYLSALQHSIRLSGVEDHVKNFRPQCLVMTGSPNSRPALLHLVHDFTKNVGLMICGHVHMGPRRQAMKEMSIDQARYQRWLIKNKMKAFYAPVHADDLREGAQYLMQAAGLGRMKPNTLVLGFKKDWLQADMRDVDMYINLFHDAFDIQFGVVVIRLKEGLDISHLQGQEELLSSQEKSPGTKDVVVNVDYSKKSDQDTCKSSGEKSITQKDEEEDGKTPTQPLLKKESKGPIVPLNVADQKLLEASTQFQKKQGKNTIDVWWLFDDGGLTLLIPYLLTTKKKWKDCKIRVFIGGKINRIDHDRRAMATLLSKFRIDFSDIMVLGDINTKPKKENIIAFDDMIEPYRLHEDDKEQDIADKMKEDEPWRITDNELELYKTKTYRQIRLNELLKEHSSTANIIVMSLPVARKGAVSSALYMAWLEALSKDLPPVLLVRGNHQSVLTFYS

The target of experiment [3] is voltage-gated sodium channel (VGSC) β1 subunit (mouse (endogenous in mouse brain)) (UniProt P97952).

No constants are given. Whether binding was seen depends on the method and setting. In cells and extracts the contact can be indirect.

On to “voltage-gated sodium channel (VGSC) β1 subunit (from UniProt P97952 19-218)”, for which the binding entry in experiment [1] and in experiment [2] was “no binding” throughout.

B1: Na+, K+-2Cl- co-transporter-1 (NKCC1) (protein, UniProt P55012 1-1205)
chain: T2 sequence
In the case of B1, the binding entry in experiment [3] was “no binding”.

B2: K+-Cl- co-transporter-2 (KCC2) (protein, UniProt Q91V14 1-1138)
chain: T1 sequence
With B2, the binding entry in experiment [3] is “no binding”.
